# According to the supplement of paper PMC10338343:
# ± gives the standard deviation. The list shows a part of the results, in another mix than the full data. Many of these values have a large error.
# Test system: MIWI (PIWIL1) piRISC loaded with L1MC piRNA (30 nt)
# Experiment: pre-steady-state target cleavage rate (min^-1); MIWI and MILI are mouse PIWI proteins and EfPiwi is from a freshwater sponge; tags in brackets are library labels; higher = faster piRNA-guided slicing of the target
# Settings: guide: L1MC piRNA 5'p-UAACUAAAUACUAUGCAAGCUGUAGGUCCU; auxiliary factor: none (no GTSF1)
# Procedure, shortened: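 A transcribed, DNA-blocked target RNA library (0.1 nM) and 1 nM active affinity-purified piRISC bearing one synthetic guide were incubated in HEPES–potassium acetate buffer at 33 °C for 0–8 or 0–960 min, either with or without 500 nM GTSF1 partner protein. Uncleaved targets were sequenced, normalised to depth and to weakly complementary targets, and pooled over three trials, with k3 capped at 0.0001 min^-1. The pre-steady-state cleavage rate was derived with a burst-and-steady-state fit.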
row,Sequence,pre-steady-state target cleavage rate
1,UCCUGGAUGUCGAACCAUAGUAGUUAGUUA,0.000152 ± 0.031
2,UCCUGCUACAGCUUGCAUAGUAUAAACAAA,0.000396 ± 0.0076
3,AGGACCUACAGCUUGCAUACAUUUUAGUUA,0.00126 ± 0.0054
4,UCCACCUACAGCUUGCAUAGGUAUUUAGUUA,0.000918 ± 0.0092
5,UCCACCUACAGCUUGCAGUAGUAUUUAGUUA,0.000755 ± 0.011
6,UCGACCUACACGUUGCAUAGUAUUUAGAAA,0.00185 ± 0.0034
7,UGGACCUACAGCUUCCAUAGUAUAUAGUUA,0.000989 ± 0.0055
8,UCCACCUACAGCUUGCAUAGAAUUUACAAA,0.00199 ± 0.0036
9,UCCUCCUACAGCUUGCAUACUAUUUUCAAA,0.00162 ± 0.0037
10,AGGACCUACAGCUUGGUAAGUAUUUAGAAA,0.000263 ± 0.013
11,AGGACCUACAGCUUGGAUAGUAUUUUCAAA,0.00159 ± 0.0045
12,UCCACCUACAGCUUGCAUUCAUAAAUCAAA [g13:g27:cont:t1A],0.000277 ± 0.014
13,UCCUGGAUGAGCAUGCAUAGUAUUUAGAAA,0.00165 ± 0.0041
14,UCCACCUACAGCUUGCAUAGAUUUUAGAAA,0.000331 ± 0.011
15,UCCACCUACAGCUUCGAUAGUAUUUAGUUA,0.0021 ± 0.0023
16,UCCACCUACUCCUUGCAUAGUAUUUUCAAA,0.00155 ± 0.0018
17,UCCACCUACUCGUUGCAUAGUAUUUAGAAA,0.00168 ± 0.0025
18,UCCACCUACAGCUUGCAAUCUAUUUAGUAA,0.00116 ± 0.0045
19,UCCUGGAUGUCGAACGAUAGUAUUUAGUUUA,0.000513 ± 0.0096

# Shown bar-delimited: entries from further up
row | Sequence | pre-steady-state target cleavage rate
8 | UCCACCUACAGCUUGCAUAGAAUUUACAAA | 0.00199 ± 0.0036
16 | UCCACCUACUCCUUGCAUAGUAUUUUCAAA | 0.00155 ± 0.0018

# (cont.)

row,Sequence,pre-steady-state target cleavage rate
1,AGGACCUACAGCUUGCGAUAGUAUUUAGUUA,0.00113 ± 0.008
2,UCGACCUACAGCAACCAUAGUAUUUUCAAA,0.000202 ± 0.015
3,AGGACCUACAGCUUGCAUAAGUAUUUAGUUA,0.00101 ± 0.0089
4,AGGACCUACAGCUACCAUAGUAUUUACAAA,0.000424 ± 0.013
5,UCCACCUACAGCUUGCAUACAUUUUUCAAA,0.000209 ± 0.013
6,UCGACCUACAGCUUCGUUAGUAUUUACAAA,0.000624 ± 0.0088
7,UCCACCUACAGCUUGCUAAGUAUUUUCAAA,0.000195 ± 0.016
8,UCGACCUACAGCUUGCAUAGUUAAAUCAAA [g10:g28:cont:t1A],0.000905 ± 0.0089
9,UCGACCUACAGCUUGCUAAGUAUUUAGUAA,0.00169 ± 0.0032
10,UCGACCUACAGCAACCAUAGUAUUUAGUUA,0.000881 ± 0.0062
11,UCCUGGAUCAGCUUGCAAUCUAUUUUCAAA,0.0002 ± 0.015
12,UCCUGGAUGUCGAACCAUAGUAUAUAGUAA,0.000105 ± 0.021
13,AGGACCUACAGCUUGCAUAGUAUAAAGAAA,0.00215 ± 0.0043
14,UCCACCUACAGCUUGCAUUGUAUUUACAAA,0.0016 ± 0.0036
15,UCCUGGAUGUGCUUGCAUAGUAUUAUCAAA [g7:g20:cont:t1A],0.000611 ± 0.0094
16,UCCACCUACAGCUUGCAUAGUAUUUACAAA,0.00306 ± 0.0042
17,UCGACCUACAGCUUCCAUAGUAUUUUCAAA,0.000632 ± 0.0089
18,UGGACCUACAGCUUGCUUAGUAUUUUCAAA,0.00151 ± 0.0031
19,UGGACCUACAGCUUGCUAAGUAUUUACAAA,0.000916 ± 0.0061
